From PubChem BioAssay AID2685 (National Center for Advancing Translational Sciences (NCATS), 2010) come the findings set out here.

The AC50 is the concentration at which the activity in the assay is half-maximal.

This assay in a line: qHTS Assay for Lipid Storage Modulators in Drosophila S3 Cells.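 For cell number change: cells counted by Cell Tracker Red CMTPX staining in the red channel.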 The settings on record: BODIPY lipid droplet fluorescence, 18-24 h; for cell number change: measured here: cell count max response, cells fed with added oleic acid. The gist of the method:
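Laser-scanning cytometry quantifies lipid droplet accumulation (500–530 nm total intensity; droplet/cell object ratio) in oleic acid-fed (400 uM added) Drosophila S3 cells treated with a concentration series. 20 uM Triacsin C defined 100% inhibition.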

Setting [1] is: measured here: lipid fluorescence (Fed channel) AC50, cells fed with added oleic acid.
The mark [2] stands for this setting: measured here: cell number channel AC50, cells fed with added oleic acid.

This is one part of the list. The main result of the screen is listed elsewhere. These columns were measured beside it and carry no call. Most of these compounds were active or inconclusive in the main read-out, so they are no random draw. Words in brackets tell the shape of the fitted curve; partial curves, single points and poor fits give uncertain potencies.

With `O=C(CN1C(=O)NC2(CCCCC2)C1=O)Nc1ccccc1N1CCCCC1`, the cell number change is -12.4%. Moreover, the AC50 under setting [1] was 0.82 µM [falling, single point]. For the compound `Cc1ccc(Nc2c(-c3ccccn3)nc3ccc(C)cn23)cc1`, the cell number change is -67.3%. Also, the AC50 under setting [2] was 0.231 µM [falling, full curve]. With `O=C(COC(=O)c1cc(S(=O)(=O)N2CCOCC2)ccc1F)Nc1ccc(Cl)cn1`, the cell number change is -5.26%. Further, under setting [1], the half-maximal activity concentration (AC50) is 7.31 µM [rising, partial curve, poor fit]. On to `Cc1ccc(SCC(=O)NCc2ccc(F)cc2)cc1`, for which the cell number change is -33%. The AC50 under setting [2] was 2.06 µM [falling, single point]. Regarding `COc1ccc(CCC(=O)OC(C)C(=O)c2ccc(C)cc2)cc1` (stereo unspecified), the cell number change amounted to 127%. The AC50 under setting [2] was 3.26 µM [rising, partial curve, poor fit]. As for `CN1CCN(/C=C2\SC(=S)NC2=O)CC1`, the cell number change was -12.6%. In addition, the AC50 under setting [1] was 1.3 µM [falling, full curve, poor fit]. Consider `Fc1ccc(C2CCCN2Cc2nc(Cc3ccccc3)no2)cc1` (stereo unspecified), for which the cell number change was found to be 15.6%. Also, the AC50 under setting [1] was 14.6 µM [rising, partial curve]. In the case of `COc1ccc(/C(O)=C2/C(=O)C(=O)N(CCCC(=O)O)C2c2ccc(OC)c(OC)c2)cc1` (stereo unspecified), the cell number change was -14.4%. Regarding `OC[C@H]1OC(Nc2ccc(N=Nc3ccccc3)cc2)[C@@H](O)[C@@H](O)[C@@H]1O` (stereo partly specified), the cell number change is 16.4%. In addition, the AC50 under setting [2] is 0.411 µM [rising, full curve]. Moreover, the AC50 under setting [1] was 0.326 µM [rising, full curve]. Consider `CC(C(=O)N1CCCc2c1c(=O)oc1ccc(O)cc21)N1CCc2ccccc2C1` (stereo unspecified), for which the cell number change is -8.48%. Further, under setting [1], the AC50 was 0.366 µM [falling, full curve]. Regarding `CCOC(=O)C1=C(C)NC(=S)NC1c1ccc(C)s1` (stereo unspecified), the cell number change stood at 9.54%. With `CCCCCn1c(CN2CCN(C)CC2)nc2c1c(=O)n(C)c(=O)n2C`, the cell number change stood at 33.1%. In addition, the AC50 under setting [1] is 7.31 µM [rising, partial curve, poor fit]. With `O=c1c(Cc2ccc(F)cc2)c(O)ccn1CCc1ccccn1`, the cell number change is -39.3%. In addition, the AC50 under setting [2] was 11.2 µM [falling, partial curve, poor fit]. The AC50 under setting [1] is 2 µM [falling, partial curve].

As to `O=C(NC1CC1)c1cc(-c2ccco2)nc2ccccc12`, the cell number change worked out at 15.8%. Also, under setting [1], the AC50 was 6.51 µM [rising, partial curve, poor fit]. As to `c1cncc(CNc2cccc(-c3nc4ccccc4[nH]3)c2)c1`, the AC50 under setting [1] is 0.146 µM [rising, full curve, poor fit]. For the compound `CCOC(=O)c1ccc(NC(=O)c2ccc(C)c(S(=O)(=O)N3CCOCC3)c2)cc1`, the cell number change worked out at 59.7%. The AC50 under setting [2] was 3.26 µM [rising, full curve, poor fit]. Besides, the AC50 under setting [1] is 1.46 µM [rising, full curve]. Take `Cc1ccccc1OCC(=O)OCn1nnc2ccccc2c1=O`: the cell number change was 20.2%. Further, under setting [2], the AC50 is 0.411 µM [falling, single point]. Also, the AC50 under setting [1] was 0.461 µM [falling, single point]. For `CC1CCN(C(=O)C2CCN(C(=O)c3cc4sccc4n3Cc3ccc(F)cc3)CC2)CC1`, the cell number change was -45%. The AC50 under setting [2] was 32.6 µM [falling, single point]. Also, the AC50 under setting [1] is 11.6 µM [falling, partial curve]. For the compound `COc1ccc(OC)c(NC(=S)N(CCc2c(C)[nH]c3ccccc23)Cc2cccs2)c1`, the cell number change was determined as 9.04%. Besides, the AC50 under setting [1] is 2.59 µM [rising, full curve]. Consider `O=C(Nc1ccc(C(=O)N2CCN(c3ccccn3)CC2)cc1)c1ccc(Br)o1`, for which the cell number change was 15.8%. In addition, the AC50 under setting [1] is 29.1 µM [rising, single point]. Consider `CCN1/C(=C/c2ccc3cc(C)ccc3[n+]2CC)Sc2cc(C)ccc21`, for which the cell number change is -51.6%. For the same compound, the AC50 under setting [2] was 18.4 µM [falling, partial curve, poor fit]. Regarding `CCn1c(CNC(=O)Cc2ccc(OC)cc2)nnc1SCC(=O)c1ccc(Br)cc1`, the AC50 was 1.64 µM [rising, partial curve] under setting [2] and 1.46 µM [rising, partial curve] under setting [1].

Regarding `O=C(Nc1ccccn1)c1ccc(Cl)c(S(=O)(=O)N2CCCC2)c1`, the cell number change turned out to be 32.9%. Further, the AC50 under setting [2] was 14.6 µM [rising, single point]. Consider `CCn1c(CNc2cccc(Cl)c2)nnc1SCc1ccccc1`, for which the cell number change was -14.4%. For `COCCn1c(C)cc2c(c1=O)C(c1ccco1)C(C#N)=C(N)O2` (stereo unspecified), the cell number change turned out to be 111%. Besides, the AC50 under setting [2] is 8.2 µM [rising, partial curve]. Also, under setting [1], the AC50 is 16.4 µM [rising, partial curve]. As for `O=C(NCC(c1cccs1)N1CCc2ccccc21)c1ccccc1` (stereo unspecified), the cell number change stood at 48.5%. For the same compound, the AC50 under setting [2] was 9.2 µM [rising, partial curve]. `CCCOC(=O)c1ccc(O)cc1`: the cell number change was -8.04%. Also, the AC50 under setting [1] was 2.59 µM [falling, single point]. Turning to `O=C(Nc1ccc2c(c1)nc1n2CCSC1)c1ccco1`, the cell number change is -19.2%. The AC50 under setting [2] was 0.13 µM [falling, full curve, poor fit]. For the same compound, the AC50 under setting [1] was 0.259 µM [falling, full curve, poor fit].

As to `C=CCn1c(CCNC(=O)c2cccs2)n[nH]c1=S`, the cell number change was 28.1%. On to `COc1cc(CCC(=O)Nc2sccc2C#N)cc(OC)c1OC`, for which the cell number change amounted to 24.4%. As to `CC(C)C(=O)Nc1cccc(NC(=O)c2ccc(Cl)cc2Cl)c1`, the AC50 under setting [1] was 29.1 µM [rising, partial curve, poor fit]. Take `Cc1ccccc1OCC(=O)O/N=C(\N)c1ccncc1`: the cell number change came out at 2.52%. In the case of `COc1ccc(S(=O)(=O)N2CCOCC2)cc1NC(=O)CSc1n[nH]c(C(C)C)n1`, the AC50 under setting [1] is 6.51 µM [rising, single point]. For `CCOc1ccc(C(=O)NNC(=O)CCNC(=O)c2ccc(Br)cc2)cc1OC`, the cell number change is 9.65%. Moreover, under setting [1], the AC50 was 29.1 µM [rising, single point]. Regarding `C/C=C/c1ccc(OCC(=O)Nc2ccncc2)c(OC)c1`, the cell number change was -14.3%. The AC50 under setting [1] is 29.1 µM [falling, single point]. In the case of `CC(=O)Nc1ccc(SCC(=O)c2cc(C)n(CC(F)(F)F)c2C)cc1`, the cell number change was 105%. In addition, the half-maximal activity concentration (AC50) under setting [2] is 23.1 µM [rising, single point]. The AC50 under setting [1] is 6.51 µM [falling, partial curve]. As for `OC1CCCN(CC(O)COC(c2ccc(F)cc2)c2ccc(F)cc2)C1` (stereo unspecified), the AC50 under setting [2] is 2.31 µM [rising, partial curve].

Consider `CC(OC(=O)CCCN=C1NS(=O)(=O)c2ccccc21)C(=O)N(C)c1ccccc1` (stereo unspecified), for which the cell number change was -4.38%.

`COc1ccc(S(=O)(=O)N2CCc3ccccc32)cc1C(=O)OCc1nnc(-c2ccccc2)o1`: the cell number change stood at 26.3%. The AC50 under setting [1] is 9.2 µM [rising, partial curve].

As to `CCc1ccc(N(CC(=O)NC2CCCC2)C(=O)CCC(=O)Nc2ccccn2)cc1`, the cell number change turned out to be 27%. For the compound `CCOc1ccc(NC(=O)Cn2c(=O)n(CCCC(=O)NC3CCN(Cc4ccccc4)CC3)c(=O)c3ccccc32)cc1`, the cell number change is -10.3%. In addition, the AC50 under setting [1] is 29.1 µM [rising, single point]. Consider `CCN1CCN(C(=O)C2CC(=O)N(c3ccc(Cl)cc3)C2)CC1` (stereo unspecified), for which the cell number change amounted to 24.8%. The AC50 under setting [1] was 29.1 µM [rising, single point]. On to `COc1cccc(CN2C(=O)C(C)Oc3ccccc32)c1` (stereo unspecified), for which the cell number change is 16.9%. Besides, the AC50 under setting [1] is 0.0651 µM [rising, full curve, poor fit]. As to `Cc1ccc(-c2nnn(CCOc3cccc(Br)c3)n2)cc1`, the cell number change is -31.5%. Under setting [2], the AC50 is 7.31 µM [falling, partial curve, poor fit].

Regarding `CC(C)N(Cc1nc(-c2ccccc2)no1)C(=O)c1ccc(Cl)cc1`, the cell number change is -0.0918%. Also, the AC50 under setting [1] is 29.1 µM [rising, single point]. Take `O=C(CCCC(=O)n1cnc2ccccc21)n1cnc2ccccc21`: the cell number change was -6.47%. Turning to `Cc1cccc(C)c1N=Cc1c(C(F)(F)F)[nH][nH]c1=O`, the cell number change is -33.1%. Moreover, the AC50 under setting [1] is 16.4 µM [falling, single point]. Take `Cc1cc(C)c(C(=O)COc2cccnc2[N+](=O)[O-])cc1C`: the cell number change is -78.8%. Besides, the AC50 under setting [2] was 20.6 µM [falling, single point]. Besides, the AC50 under setting [1] is 29.1 µM [falling, single point]. On to `Cc1cc(C(=O)CN2C(=O)NC3(CCCc4ccccc43)C2=O)c(C)n1Cc1cccs1` (stereo unspecified), for which the cell number change was 39.4%. Moreover, the AC50 under setting [2] was 32.6 µM [rising, single point]. For the same compound, the AC50 under setting [1] was 0.411 µM [rising, full curve, poor fit]. With `CC(C)(C)C1CCC(C(=O)Nc2ccccc2)CC1` (stereo unspecified), the cell number change stood at 14.1%. The AC50 under setting [1] was 2.31 µM [falling, partial curve].

Turning to `Cc1ccc(-c2oc3ccccc3c(=O)c2O)cc1`, the cell number change came to 31.4%. Moreover, the AC50 under setting [1] is 6.51 µM [falling, single point]. With `O=C(CSc1ncnc2nc[nH]c12)N1CCN(c2ccc(Cl)cc2)CC1`, the cell number change is -32.7%. The AC50 under setting [2] was 2.91 µM [falling, full curve]. For the same compound, the AC50 under setting [1] was 2.59 µM [falling, full curve]. For `Cc1[nH]n(-c2ccccc2)c(=O)c1N=Nc1ccccc1C(=O)O`, the cell number change is -26.9%. Also, under setting [1], the AC50 is 4.61 µM [falling, single point].

On to `CC(OC(=O)c1ccccc1NCCO)C(=O)Nc1ccc(S(=O)(=O)N2CCOCC2)cc1` (stereo unspecified), for which the cell number change is 5.21%. The AC50 under setting [1] was 0.00461 µM [rising, full curve, poor fit]. Consider `CCCOc1ccc(C(=O)NCCC(=O)NCCCC(=O)OCC)cc1`, for which the cell number change is 10%. In the case of `COc1cccc(-n2ccnc2SCC(=O)NCc2ccccc2)c1`, the cell number change was determined as 16.3%. Under setting [1], the AC50 was 0.651 µM [rising, partial curve, poor fit]. As to `Oc1ccc(N2CCN(c3ncnc4sc(-c5ccccc5)cc34)CC2)cc1`, the cell number change is -15.6%.

With `O=C(c1cccn2c(=O)c3ccc(Cl)cc3nc12)N1CCN(Cc2ccc3c(c2)OCO3)CC1`, the cell number change stood at 35.5%. Under setting [2], the AC50 was 5.8 µM [rising, single point]. For the compound `CC(C)C(=O)Nc1cccc(C(=O)Nc2ccc(S(=O)(=O)Nc3nccs3)cc2)c1`, the cell number change was -7.66%. Besides, the AC50 under setting [1] is 29.1 µM [falling, single point]. For `Cc1ccc(-c2cc(C(F)(F)F)nn2-c2ccc(S(N)(=O)=O)cc2)cc1`, the cell number change was -12.4%. Further, the AC50 under setting [1] is 3.26 µM [falling, single point].
